These are yes or no findings as the source states them, for the method shown. In cells and extracts the contact can be indirect. A yes stands for co-enrichment or nearness to the bait. Other partners may have been found. No binding means not detected with the bait.
T1: Msh4-TurboID (S. cerevisiae) (UniProt P40965)
T1 sequence: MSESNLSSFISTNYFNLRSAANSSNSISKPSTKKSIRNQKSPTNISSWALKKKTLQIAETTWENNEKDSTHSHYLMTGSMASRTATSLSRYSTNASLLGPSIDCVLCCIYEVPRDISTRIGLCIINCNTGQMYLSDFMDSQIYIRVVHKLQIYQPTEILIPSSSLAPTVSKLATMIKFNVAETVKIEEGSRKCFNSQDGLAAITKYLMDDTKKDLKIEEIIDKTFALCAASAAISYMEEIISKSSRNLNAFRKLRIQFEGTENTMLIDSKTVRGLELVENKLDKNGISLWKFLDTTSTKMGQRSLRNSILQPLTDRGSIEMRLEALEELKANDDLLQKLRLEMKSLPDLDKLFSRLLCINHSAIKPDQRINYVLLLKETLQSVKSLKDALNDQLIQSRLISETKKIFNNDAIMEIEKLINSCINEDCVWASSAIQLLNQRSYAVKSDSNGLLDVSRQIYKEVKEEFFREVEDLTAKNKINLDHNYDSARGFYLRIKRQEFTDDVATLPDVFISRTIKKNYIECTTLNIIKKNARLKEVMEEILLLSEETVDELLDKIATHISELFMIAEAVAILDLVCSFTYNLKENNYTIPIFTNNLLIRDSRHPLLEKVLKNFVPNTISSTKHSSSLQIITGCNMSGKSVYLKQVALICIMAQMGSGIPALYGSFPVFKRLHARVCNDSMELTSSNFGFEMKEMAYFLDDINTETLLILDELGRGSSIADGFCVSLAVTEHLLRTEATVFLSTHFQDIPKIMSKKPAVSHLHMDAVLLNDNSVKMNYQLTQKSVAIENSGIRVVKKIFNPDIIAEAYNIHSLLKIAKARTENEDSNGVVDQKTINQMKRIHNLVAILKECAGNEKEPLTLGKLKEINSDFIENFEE


Target: T1, Msh4-TurboID (S. cerevisiae)
Assay: proximity labelling

| Binder | binding |
| --- | --- |
| Zip3[Δ107-121] (protein, UniProt Q06032) MGGYLAIVFIPQTNTKSMREKKQKCLKQVRRLSLISPKKYIMPDSIFEQPFVYCGVCHRRTSHGDPLRLTSCAHILCSQHSPLTSKVCPICRSSDISIINLVESKQLESLYNVSQFQLNGLSKQCQYYQNHCLKLREKCARQQQLLYQAKIELDSMAILKKRIQELESVLNHNNVSSMSVGVLPTRNSHQNHYQPPPTVDLTVDDNSLEEFEAKSFIKKLKKNSSLRNSSKNNNGTVTPSTSGRVNKNQPLFMETLNNPNRNSIPPPGMNPNANSNLPNISTIAESTNLNRFSFSPVRVAKGFDGKLPNLDILTNNGSVSSKNISRLSSASLQPSSPLSSSSNRLILPNSNLKELHHSNTPLTSTSTQFPSALEKLKITRKRNNTISGSNRITHNLSSHVRSSGLAFSSSSNSLQQSKLPKSNILKRSNSTQQLTNTHLKSDNHLPPRSSNTVLGSSKKNNKFRRIR | no binding |
| Zip3[Δ137-150] (protein, UniProt Q06032) MGGYLAIVFIPQTNTKSMREKKQKCLKQVRRLSLISPKKYIMPDSIFEQPFVYCGVCHRRTSHGDPLRLTSCAHILCSQHSPLTSKVCPICRSSDISIINLVESKQLPTDIRIFFEPLPPLLESLYNVSQFQLNGLREKCARQQQLLYQAKIELDSMAILKKRIQELESVLNHNNVSSMSVGVLPTRNSHQNHYQPPPTVDLTVDDNSLEEFEAKSFIKKLKKNSSLRNSSKNNNGTVTPSTSGRVNKNQPLFMETLNNPNRNSIPPPGMNPNANSNLPNISTIAESTNLNRFSFSPVRVAKGFDGKLPNLDILTNNGSVSSKNISRLSSASLQPSSPLSSSSNRLILPNSNLKELHHSNTPLTSTSTQFPSALEKLKITRKRNNTISGSNRITHNLSSHVRSSGLAFSSSSNSLQQSKLPKSNILKRSNSTQQLTNTHLKSDNHLPPRSSNTVLGSSKKNNKFRRIR | no binding |
| Zip3[L150E, L160E, L168E, L181E] (protein, UniProt Q06032 1-482) MGGYLAIVFIPQTNTKSMREKKQKCLKQVRRLSLISPKKYIMPDSIFEQPFVYCGVCHRRTSHGDPLRLTSCAHILCSQHSPLTSKVCPICRSSDISIINLVESKQLPTDIRIFFEPLPPLLESLYNVSQFQLNGLSKQCQYYQNHCLKEREKCARQQQELYQAKIEEDSMAILKKRIQEEESVLNHNNVSSMSVGVLPTRNSHQNHYQPPPTVDLTVDDNSLEEFEAKSFIKKLKKNSSLRNSSKNNNGTVTPSTSGRVNKNQPLFMETLNNPNRNSIPPPGMNPNANSNLPNISTIAESTNLNRFSFSPVRVAKGFDGKLPNLDILTNNGSVSSKNISRLSSASLQPSSPLSSSSNRLILPNSNLKELHHSNTPLTSTSTQFPSALEKLKITRKRNNTISGSNRITHNLSSHVRSSGLAFSSSSNSLQQSKLPKSNILKRSNSTQQLTNTHLKSDNHLPPRSSNTVLGSSKKNNKFRRIR | no binding |
| Zip3[Δ388-400] (protein, UniProt Q06032) MGGYLAIVFIPQTNTKSMREKKQKCLKQVRRLSLISPKKYIMPDSIFEQPFVYCGVCHRRTSHGDPLRLTSCAHILCSQHSPLTSKVCPICRSSDISIINLVESKQLPTDIRIFFEPLPPLLESLYNVSQFQLNGLSKQCQYYQNHCLKLREKCARQQQLLYQAKIELDSMAILKKRIQELESVLNHNNVSSMSVGVLPTRNSHQNHYQPPPTVDLTVDDNSLEEFEAKSFIKKLKKNSSLRNSSKNNNGTVTPSTSGRVNKNQPLFMETLNNPNRNSIPPPGMNPNANSNLPNISTIAESTNLNRFSFSPVRVAKGFDGKLPNLDILTNNGSVSSKNISRLSSASLQPSSPLSSSSNRLILPNSNLKELHHSNTPLTSTSTQFPSAISGSNRITHNLSSHVRSSGLAFSSSSNSLQQSKLPKSNILKRSNSTQQLTNTHLKSDNHLPPRSSNTVLGSSKKNNKFRRIR | no binding |

Reference: paper doi:10.1101/2023.09.17.558147
